The supplement of paper PMC7661543
The effect of the compound repeats well; differences between the knockouts mostly do not.

Experiments:
Assay in all cases: relative cell number vs DMSO control (72 h) (% of DMSO); higher = less growth inhibition (more cells)
BT-20 = system: BT-20
Experimental: (§1)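 QMAP-Seq: a pool of 5 breast cancer cell lines (ZR-75-1, SKBR3, HCC-38, MDA-MB-231, BT-20), each carrying 12 doxycycline-inducible Cas9 sgRNA perturbations (11 knockouts plus non-targeting sgNT), was treated with compounds for 72 h at four 10-fold doses (10 nM-10 uM or 1 nM-1 uM range). Barcodes were amplified and sequenced, and cell number was interpolated from 293T spike-in standard curves. The result is expressed as % of the median of DMSO wells. Two biological replicates.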

SKBR3 = system: SKBR3
Experimental: as §1

ZR-75-1 = system: ZR-75-1
Experimental: as §1

O=[N+]([O-])c1ccc(O)c2ncccc12 [Nitroxoline]
relative cell number
Details | BT-20 | SKBR3 | ZR-75-1
sgRNA knockout: sgATF3, 10 nM | 87.3 | 98.8 | 99.1
sgRNA knockout: sgATF3, 100 nM | 84.4 | 101 | 96
sgRNA knockout: sgATF3, 1000 nM | 93.1 | 72.1 | 91.7
sgRNA knockout: sgATF3, 10000 nM | 46.2 | 52.4 | 51.5
sgRNA knockout: sgATF4, 10 nM | 90 | 105 | 99.2
sgRNA knockout: sgATF4, 100 nM | 86.3 | 88.5 | 82.9
sgRNA knockout: sgATF4, 1000 nM | 109 | 82.2 | 91
sgRNA knockout: sgATF4, 10000 nM | 56.8 | 56.8 | 50.4
sgRNA knockout: sgATF6, 10 nM | 83 | 96.5 | 44.5
sgRNA knockout: sgATF6, 100 nM | 85.5 | 85.9 | 117
sgRNA knockout: sgATF6, 1000 nM | 107 | 88.2 | 92.5
sgRNA knockout: sgATF6, 10000 nM | 55.5 | 76.6 | 35.7
sgRNA knockout: sgATG7, 10 nM | 86.3 | 80.1 | 77.8
sgRNA knockout: sgATG7, 100 nM | 92.7 | 94 | 102
sgRNA knockout: sgATG7, 1000 nM | 108 | 75.3 | 79.1
sgRNA knockout: sgATG7, 10000 nM | 47.5 | 56.7 | 42.2
sgRNA knockout: sgERN1, 10 nM | 84 | 97.9 | 87.1
sgRNA knockout: sgERN1, 100 nM | 95.7 | 89.4 | 85.7
sgRNA knockout: sgERN1, 1000 nM | 110 | 83.6 | 85.8
sgRNA knockout: sgERN1, 10000 nM | 47.1 | 55.42 | 37.8
sgRNA knockout: sgHSF1, 10 nM | 91.9 | 71 | –
sgRNA knockout: sgHSF1, 100 nM | 97.7 | 85.9 | –
sgRNA knockout: sgHSF1, 1000 nM | 91.1 | 89.1 | –
sgRNA knockout: sgHSF1, 10000 nM | 53.7 | 56.5 | –
sgRNA knockout: sgHSF2, 10 nM | 71.4 | 95.4 | 85.5
sgRNA knockout: sgHSF2, 100 nM | 88.5 | 79.5 | 89.9
sgRNA knockout: sgHSF2, 1000 nM | 119 | 89.8 | 87.4
sgRNA knockout: sgHSF2, 10000 nM | 50 | 53.2 | 40.6
sgRNA knockout: sgKEAP1, 10 nM | 93.4 | 104 | –
sgRNA knockout: sgKEAP1, 100 nM | 93.3 | 85.14 | –
sgRNA knockout: sgKEAP1, 1000 nM | 97.6 | 88.4 | –
sgRNA knockout: sgKEAP1, 10000 nM | 47.22 | 53 | –
sgRNA knockout: sgNFE2L2, 10 nM | 89.8 | 89.1 | 84.3
sgRNA knockout: sgNFE2L2, 100 nM | 89.4 | 89.1 | 78.4
sgRNA knockout: sgNFE2L2, 1000 nM | 84.3 | 98.9 | 89.2
sgRNA knockout: sgNFE2L2, 10000 nM | 47.1 | 53.2 | 41
sgRNA knockout: sgSLC35F2, 10 nM | 93.4 | 82.1 | 65.9
sgRNA knockout: sgSLC35F2, 100 nM | 88.9 | 88.9 | 77.4
sgRNA knockout: sgSLC35F2, 1000 nM | 105 | 112 | 36.6
sgRNA knockout: sgSLC35F2, 10000 nM | 52.7 | 57.5 | 40.1
sgRNA knockout: sgXBP1, 10 nM | 94.1 | 131 | 100
sgRNA knockout: sgXBP1, 100 nM | 93.8 | 97.2 | 87
sgRNA knockout: sgXBP1, 1000 nM | 112 | 93.4 | 95.6
sgRNA knockout: sgXBP1, 10000 nM | 53.7 | 68.7 | 33.1
